These results are taken from US20170044259A1.

The chains behind the UniProt entries cited, without tags or fusion partners. Residues count along the entry.
UniProt Q15116, residues 25-167: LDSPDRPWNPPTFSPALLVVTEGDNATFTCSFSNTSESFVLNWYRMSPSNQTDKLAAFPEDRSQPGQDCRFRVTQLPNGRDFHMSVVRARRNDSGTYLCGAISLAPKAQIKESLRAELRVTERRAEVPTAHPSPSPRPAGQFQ

The target in test [1] is human PD-1-Fc (R and D systems, Minneapolis, Minn.) (human) (UniProt Q15116). In words: standard plate ELISA on hPD1 after overnight incubation with 60 ug/mL rh uPA. (In an ELISA, binding on a coated surface is turned into a signal by an enzyme label.)
For test [2] the target is unchanged. In words: plate ELISA on human PD-1-Fc.
The target of test [3] is human PD-1-His (R & D systems, Minneapolis, Minn.) (human) (UniProt Q15116). The experiment in a line: BLI. A general note: BLI is a label-free optical method that tracks binding on a fibre tip over time.
The target is the same in test [4]. In words: BLI (ForteBio Octet), antibody on the sensor, human PD-1-His in solution.

These are yes or no findings as the source states them, for the method shown. Some entries that bind do so weakly or less than the wild type.

B1: A1.5 PD34 2001 activatable antibody incubated with recombinant human urokinase (rh uPA) (antibody, V domains shown, not shown: small tags and cut ends)
VH: EVQLVESGGGLVQPGGSLRLSCAASGFTFSGYAMSWVRQAPGKGLEWVAYISNSGGNAHYADSVKGRFTISRDNSKNTLYLQMNSLRAEDTAVYYCTREDYGTSPFVYWGQGTLVTVSS
VL: DIQLTQSPSSLSASVGDRVTITCRASESVDAYGISFMNWFQQKPGKAPKLLIYAASNQGSGVPSRFSGSGSGTDFTLTISSMQPEDFATYYCQQSKDVPWTFGQGTKLEIKR
B1: the binding result in test [1] is reported as “binds”.

B2: Ba2 (antibody, human IgG4 S228P, kappa, V domains shown)
VH: QVQLVQSGAEVKKPGASVKMSCKASGYTFTDYYMDWVRQAPGQGLEWIGYIYPKNGGSSYAQKFQGRATLTVDTSTSTAYMELSSLRSEDTAVYYCARKVVATDYWGQGTLLTVSS
VL: DIQMTQSPSSLSASVGDRVTMTCKSSQSLLYSSNQKNYLAWYQQKPGKAPKLLIFWASIRESGVPSRFSGSGSGTDFTLTISSVQPEDFATYYCQQSDSYPWTFGQGTKLEIKR
Consider B2, for which the binding entry in test [2], in test [3] and in test [4] was “binds” throughout.
